Reference: patent US20260000075A1, “HERBICIDAL MALONIC ACID MONOAMIDES AND MALONAMIDE ESTERS” (BASF SE, priority 2022, published 2026)
Some of these results come from one statement about several compounds together. At least one compound was matched to its structure with a doubt left.

Legend:
AVEFA = test: greenhouse post-emergence herbicidal test; format: in vivo, Avena fatua; conditions: post-emergence method, scale from 0 to 100
Description: (§1) The culture containers used were plastic flowerpots containing loamy sand with approximately 3.0% of humus as the substrate. The seeds of the test plants were sown separately for each species.
(§2) For the post-emergence treatment, the test plants were first grown to a height of 3 to 15 cm, depending on the plant habit, and only then treated with the active ingredients which had been suspended or emulsified in water. For this purpose, the test plants were either sown directly and grown in the same containers, or they were first grown separately as seedlings and transplanted into the test containers a few days prior to treatment.
(§3) Depending on the species, the test plants were kept at 10-25° C. or 20-35° C., respectively.
(§4) The test period extended over 2 to 4 weeks. During this time, the test plants were tended, and their response to the individual treatments was evaluated.
(§5) Evaluation was carried out using a scale from 0 to 100. 100 means no emergence of the test plants, or complete destruction of at least the aerial moieties, and 0 means no damage, or normal course of growth. A good herbicidal activity is given at values of 70 to <90 and a very good herbicidal activity is given at values of 90 to 100.
(§6) The test plants used in the greenhouse experiments were of the following species: […]

AMARE = test: greenhouse post-emergence herbicidal test; format: in vivo, Amaranthus retroflexus; conditions: post-emergence method, scale from 0 to 100
Description: as §1, §2, §3, §4, §5, §6

ECHCG = test: greenhouse post-emergence herbicidal test; format: in vivo, Echinocloa crus-galli; conditions: post-emergence method, scale from 0 to 100
LOLMU = test: greenhouse pre-emergence herbicidal test; format: in vivo, Lolium multiflorum; conditions: pre-emergence method, scale from 0 to 100
Description: as §1
For the pre-emergence treatment, the active ingredients, which had been suspended or emulsified in water, were applied directly after sowing by means of finely distributing nozzles. The containers were irrigated gently to promote germination and growth and subsequently covered with transparent plastic hoods until the test plants had rooted.
This cover caused uniform germination of the test plants, unless this had been impaired by the active ingredients.
as §3, §4, §5, §6

Row | Compound | herbicidal activity against AVEFA (AVEFA; application rate 0.250 kg/ha) | herbicidal activity against AMARE (AMARE; application rate 0.250 kg/ha) | herbicidal activity against ECHCG (ECHCG; application rate 0.250 kg/ha) | also measured
1 | O=C(Nc1cc(F)cc(F)c1)C1(C(=O)OCC2CC2)CCO1 (stereo not drawn) [11.16] | very good (a very good herbicidal activity is given at values of 90 to 100) | good (A good herbicidal activity is given at values of 70 to <90) | very good (a very good herbicidal activity is given at values of 90 to 100) | –
2 | CS(=O)(=O)CCOC(=O)C1(C(=O)Nc2cc(F)cc(F)c2)CCO1 (stereo not drawn) [compound 11.8] | good (A good herbicidal activity is given at values of 70 to <90) | good (A good herbicidal activity is given at values of 70 to <90) | very good (a very good herbicidal activity is given at values of 90 to 100) | –
3 | O=C(Nc1cc(F)cc(F)c1)C1(C(=O)OCCF)CCO1 (stereo not drawn) [11.11] | very good (a very good herbicidal activity is given at values of 90 to 100) | good (A good herbicidal activity is given at values of 70 to <90) | very good (a very good herbicidal activity is given at values of 90 to 100) | –
4 | CSCCOC(=O)C1(C(=O)Nc2cc(F)cc(F)c2)C=CCO1 (stereo not drawn) [compound 1.9] | – | – | – | herbicidal activity against AVEFA (AVEFA; application rate 0.500 kg/ha): very good (a very good herbicidal activity is given at values of 90 to 100); herbicidal activity against LOLMU (LOLMU; application rate 0.500 kg/ha): very good (a very good herbicidal activity is given at values of 90 to 100); herbicidal activity against ECHCG (ECHCG; application rate 0.500 kg/ha): good (A good herbicidal activity is given at values of 70 to <90)
5 | CCOC(=O)C1(C(=O)Nc2cc(Cl)cc(Cl)c2)OCC=C1C (stereo not drawn) [1.4] | – | good (A good herbicidal activity is given at values of 70 to <90) | – | –
6 | O=C(Nc1cc(F)cc(F)c1)C1(C(=O)OCCCl)C=CCO1 (stereo not drawn) [1.12] | – | – | – | herbicidal activity against AVEFA (AVEFA; application rate 0.500 kg/ha): very good (a very good herbicidal activity is given at values of 90 to 100); herbicidal activity against LOLMU (LOLMU; application rate 0.500 kg/ha): very good (a very good herbicidal activity is given at values of 90 to 100); herbicidal activity against AMARE (AMARE; application rate 0.500 kg/ha): good (A good herbicidal activity is given at values of 70 to <90); herbicidal activity against ECHCG (ECHCG; application rate 0.500 kg/ha): good (A good herbicidal activity is given at values of 70 to <90)
7 | O=C(Nc1cc(F)cc(F)c1)C1(C(=O)OC2CCC2)CCO1 (stereo not drawn) [11.17] | very good (a very good herbicidal activity is given at values of 90 to 100) | good (A good herbicidal activity is given at values of 70 to <90) | very good (a very good herbicidal activity is given at values of 90 to 100) | –
8 | O=C(O)C1(C(=O)Nc2cc(F)cc(F)c2)COC1 [11.20, 3-[(3,5-difluorophenyl)carbamoyl]oxetane-3-carboxylic acid] | – | – | – | herbicidal activity against AMARE (AMARE; application rate 0.500 kg/ha): good (A good herbicidal activity is given at values of 70 to <90); herbicidal activity against ECHCG (ECHCG; application rate 0.500 kg/ha): good (A good herbicidal activity is given at values of 70 to <90)
9 | O=C(Nc1cc(F)cc(F)c1)C1(C(=O)OCc2ccco2)CCO1 (stereo not drawn) [11.14] | good (A good herbicidal activity is given at values of 70 to <90) | – | very good (a very good herbicidal activity is given at values of 90 to 100) | –
10 | CCOC(=O)C1(C(=O)Nc2cc(F)cc(F)c2)CC=CO1 (stereo not drawn) [compound 1.25, ethyl 2-[(3,5-difluorophenyl)carbamoyl]-3H-furan-2-carboxylate] | very good (a very good herbicidal activity is given at values of 90 to 100) | very good (a very good herbicidal activity is given at values of 90 to 100) | very good (a very good herbicidal activity is given at values of 90 to 100) | herbicidal activity against LOLMU (LOLMU; application rate 0.250 kg/ha): good (A good herbicidal activity is given at values of 70 to <90)
11 | O=C(Nc1cc(F)cc(F)c1)C1(C(=O)OCCSc2ccccc2)C=CCO1 (stereo not drawn) [1.11] | – | – | – | herbicidal activity against AVEFA (AVEFA; application rate 0.500 kg/ha): very good (a very good herbicidal activity is given at values of 90 to 100); herbicidal activity against LOLMU (LOLMU; application rate 0.500 kg/ha): good (A good herbicidal activity is given at values of 70 to <90); herbicidal activity against ECHCG (ECHCG; application rate 0.500 kg/ha): good (A good herbicidal activity is given at values of 70 to <90)
12 | O=C(Nc1cc(F)cc(F)c1)C1(C(=O)OCc2ccccc2)CCO1 (stereo not drawn) [11.15] | good (A good herbicidal activity is given at values of 70 to <90) | good (A good herbicidal activity is given at values of 70 to <90) | very good (a very good herbicidal activity is given at values of 90 to 100) | –
13 | O=C(Nc1cc(F)cc(F)c1)C1(C(=O)OCCCl)CCO1 (stereo not drawn) [11.10] | very good (a very good herbicidal activity is given at values of 90 to 100) | very good (a very good herbicidal activity is given at values of 90 to 100) | very good (a very good herbicidal activity is given at values of 90 to 100) | –
14 | 5-[(3,5-difluorophenyl)carbamoyl]-hydrofuran-5-carboxylic acid [compound 1.7] | – | – | – | herbicidal activity against AVEFA (AVEFA; application rate 0.500 kg/ha): very good (a very good herbicidal activity is given at values of 90 to 100); herbicidal activity against ECHCG (ECHCG; application rate 0.500 kg/ha): very good (a very good herbicidal activity is given at values of 90 to 100)
15 | COCCOC(=O)C1(C(=O)Nc2cc(F)cc(F)c2)CCO1 (stereo not drawn) [11.6] | very good (a very good herbicidal activity is given at values of 90 to 100) | good (A good herbicidal activity is given at values of 70 to <90) | good (A good herbicidal activity is given at values of 70 to <90) | –
16 | O=C(Nc1cc(F)cc(F)c1)C1(C(=O)OCCSc2ccccc2)CCO1 (stereo not drawn) [11.9] | very good (a very good herbicidal activity is given at values of 90 to 100) | good (A good herbicidal activity is given at values of 70 to <90) | good (A good herbicidal activity is given at values of 70 to <90) | –
17 | O=C(Nc1cc(F)cc(F)c1)C1(C(=O)OCC(F)(F)F)C=CCO1 (stereo not drawn) [1.15] | – | – | – | herbicidal activity against AVEFA (AVEFA; application rate 0.500 kg/ha): very good (a very good herbicidal activity is given at values of 90 to 100); herbicidal activity against LOLMU (LOLMU; application rate 0.500 kg/ha): good (A good herbicidal activity is given at values of 70 to <90); herbicidal activity against ECHCG (ECHCG; application rate 0.500 kg/ha): good (A good herbicidal activity is given at values of 70 to <90)
18 | CSCCOC(=O)C1(C(=O)Nc2cc(F)cc(F)c2)CCO1 (stereo not drawn) [11.7] | very good (a very good herbicidal activity is given at values of 90 to 100) | good (A good herbicidal activity is given at values of 70 to <90) | very good (a very good herbicidal activity is given at values of 90 to 100) | –
19 | O=C(Nc1cc(F)cc(F)c1)C1(C(=O)OCC(F)F)CCO1 (stereo not drawn) [11.12] | very good (a very good herbicidal activity is given at values of 90 to 100) | good (A good herbicidal activity is given at values of 70 to <90) | very good (a very good herbicidal activity is given at values of 90 to 100) | –
20 | O=C(O)C1(C(=O)Nc2cc(Cl)cc(Cl)c2)CC(CCl)O1 (stereo not drawn) [11.4] | – | good (A good herbicidal activity is given at values of 70 to <90) | – | –
21 | O=C(Nc1cc(F)cc(F)c1)C1(C(=O)OCC(F)(F)F)CCO1 (stereo not drawn) [11.13] | very good (a very good herbicidal activity is given at values of 90 to 100) | – | very good (a very good herbicidal activity is given at values of 90 to 100) | –
